Results are given in words; binding and its absence hold for the method and conditions named. In cells and extracts the contact can be indirect. Here binding means that the protein was enriched with, or labelled near, the bait; the list need not be complete.
Biological target: Flag-epitope tagged ORF59 (BAC16-ORF59Flag) (KSHV (human herpesvirus 8)) (UniProt F5HID2)
Test: affinity purification with mass spectrometry

The chains behind the UniProt entries cited, without tags or fusion partners.
UniProt F5HID2: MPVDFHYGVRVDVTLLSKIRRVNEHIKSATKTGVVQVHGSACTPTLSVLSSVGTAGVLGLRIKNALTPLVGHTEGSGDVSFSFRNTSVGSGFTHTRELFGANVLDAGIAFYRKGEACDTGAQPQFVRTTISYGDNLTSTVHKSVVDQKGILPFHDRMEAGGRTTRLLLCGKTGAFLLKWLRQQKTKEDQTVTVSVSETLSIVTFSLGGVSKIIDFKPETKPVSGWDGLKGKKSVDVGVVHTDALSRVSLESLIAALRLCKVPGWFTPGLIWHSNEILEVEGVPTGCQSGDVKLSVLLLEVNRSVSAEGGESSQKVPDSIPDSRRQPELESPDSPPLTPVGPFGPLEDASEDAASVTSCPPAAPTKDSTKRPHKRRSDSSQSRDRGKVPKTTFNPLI

| Binder | binding |
| --- | --- |
| Peroxiredoxin-1 (protein, UniProt Q06830 1-199) MSSGNAKIGHPAPNFKATAVMPDGQFKDISLSDYKGKYVVFFFYPLDFTFVCPTEIIAFSDRAEEFKKLNCQVIGASVDSHFCHLAWVNTPKKQGGLGPMNIPLVSDPKRTIAQDYGVLKADEGISFRGLFIIDDKGILRQITVNDLPVGRSVDETLRLVQAFQFTDKHGEVCPAGWKPGSDTIKPDVQKSKEYFSKQK | binds |
| Leucine-rich flightless-interacting protein 2 (protein, UniProt Q9Y608 1-721) MGTPASGRKRTPVKDRFSAEDEALSNIAREAEARLAAKRAARAEARDIRMRELERQQKEYSLHSFDRKWGQIQKWLEDSERARYSHRSSHHRPYLGVEDALSIRSVGSHRYDMFKDRSSRLSSLNHSYSHSHGMKKRSSDSHKDLLSGLYFDQRNYSSLRHSKPTSAYYTRQSSSLYSDPLATYKSDRASPTANSGLLRSASLASLYNGGLYNPYGPRTPSECSYYSSRISSARSSPGFTNDDTASIVSSDRASRGRRESVVSAADYFSRSNRRGSVVSEVDDISIPDLSSLDEKSDKQYAENYTRPSSRNSASATTPLSGNSSRRGSGDTSSLIDPDTSLSELRDIYDLKDQIQDVEGRYMQGLKELKESLSEVEEKYKKAMVSNAQLDNEKNNLIYQVDTLKDVIEEQEEQMAEFYRENEEKSKELERQKHMCSVLQHKMEELKEGLRQRDELIEEKQRMQQKIDTMTKEVFDLQETLLWKDKKIGALEKQKEYIACLRNERDMLREELADLQETVKTGEKHGLVIIPDGTPNGDVSHEPVAGAITVVSQEAAQVLESAGEGPLDVRLRKLAGEKEELLSQIRKLKLQLEEERQKCSRNDGTVGDLAGLQNGSDLQFIEMQRDANRQISEYKFKLSKAEQDITTLEQSISRLEGQVLRYKTAAENAEKVEDELKAEKRKLQRELRTALDKIEEMEMTNSHLAKRLEKMKANRTALLAQQ | binds |
| RNA-binding protein 14 (protein, UniProt Q96PK6 1-669) MKIFVGNVDGADTTPEELAALFAPYGTVMSCAVMKQFAFVHMRENAGALRAIEALHGHELRPGRALVVEMSRPRPLNTWKIFVGNVSAACTSQELRSLFERRGRVIECDVVKDYAFVHMEKEADAKAAIAQLNGKEVKGKRINVELSTKGQKKGPGLAVQSGDKTKKPGAGDTAFPGTGGFSATFDYQQAFGNSTGGFDGQARQPTPPFFGRDRSPLRRSPPRASYVAPLTAQPATYRAQPSVSLGAAYRAQPSASLGVGYRTQPMTAQAASYRAQPSVSLGAPYRGQLASPSSQSAAASSLGPYGGAQPSASALSSYGGQAAAASSLNSYGAQGSSLASYGNQPSSYGAQAASSYGVRAAASSYNTQGAASSLGSYGAQAASYGAQSAASSLAYGAQAASYNAQPSASYNAQSAPYAAQQAASYSSQPAAYVAQPATAAAYASQPAAYAAQATTPMAGSYGAQPVVQTQLNSYGAQASMGLSGSYGAQSAAAATGSYGAAAAYGAQPSATLAAPYRTQSSASLAASYAAQQHPQAAASYRGQPGNAYDGAGQPSAAYLSMSQGAVANANSTPPPYERTRLSPPRASYDDPYKKAVAMSKRYGSDRRLAELSDYRRLSESQLSFRRSPTKSSLDYRRLPDAHSDYARYSGSYNDYLRAAQMHSGYQRRM | binds |
| Matrin-3 (protein, UniProt P43243 1-847) MSKSFQQSSLSRDSQGHGRDLSAAGIGLLAAATQSLSMPASLGRMNQGTARLASLMNLGMSSSLNQQGAHSALSSASTSSHNLQSIFNIGSRGPLPLSSQHRGDADQASNILASFGLSARDLDELSRYPEDKITPENLPQILLQLKRRRTEEGPTLSYGRDGRSATREPPYRVPRDDWEEKRHFRRDSFDDRGPSLNPVLDYDHGSRSQESGYYDRMDYEDDRLRDGERCRDDSFFGETSHNYHKFDSEYERMGRGPGPLQERSLFEKKRGAPPSSNIEDFHGLLPKGYPHLCSICDLPVHSNKEWSQHINGASHSRRCQLLLEIYPEWNPDNDTGHTMGDPFMLQQSTNPAPGILGPPPPSFHLGGPAVGPRGNLGAGNGNLQGPRHMQKGRVETSRVVHIMDFQRGKNLRYQLLQLVEPFGVISNHLILNKINEAFIEMATTEDAQAAVDYYTTTPALVFGKPVRVHLSQKYKRIKKPEGKPDQKFDQKQELGRVIHLSNLPHSGYSDSAVLKLAEPYGKIKNYILMRMKSQAFIEMETREDAMAMVDHCLKKALWFQGRCVKVDLSEKYKKLVLRIPNRGIDLLKKDKSRKRSYSPDGKESPSDKKSKTDGSQKTESSTEGKEQEEKSGEDGEKDTKDDQTEQEPNMLLESEDELLVDEEEAAALLESGSSVGDETDLANLGDVASDGKKEPSDKAVKKDGSASAAAKKKLKKVDKIEELDQENEAALENGIKNEENTEPGAESSENADDPNKDTSENADGQSDENKDDYTIPDEYRIGPYQPNVPVGIDYVIPKTGFYCKLCSLFYTNEEVAKNTHCSSLPHYQKLKKFLNKLAEERRQKKET | binds |
| Isoform 1A of Catenin delta-1 (protein, UniProt O60716-5 1-933) MDDSEVESTASILASVKEQEAQFEKLTRALEEERRHVSAQLERVRVSPQDANPLMANGTLTRRHQNGRFVGDADLERQKFSDLKLNGPQDHSHLLYSTIPRMQEPGQIVETYTEEDPEGAMSVVSVETSDDGTTRRTETTVKKVVKTVTTRTVQPVAMGPDGLPVDASSVSNNYIQTLGRDFRKNGNGGPGPYVGQAGTATLPRNFHYPPDGYSRHYEDGYPGGSDNYGSLSRVTRIEERYRPSMEGYRAPSRQDVYGPQPQVRVGGSSVDLHRFHPEPYGLEDDQRSMGYDDLDYGMMSDYGTARRTGTPSDPRRRLRSYEDMIGEEVPSDQYYWAPLAQHERGSLASLDSLRKGGPPPPNWRQPELPEVIAMLGFRLDAVKSNAAAYLQHLCYRNDKVKTDVRKLKGIPVLVGLLDHPKKEVHLGACGALKNISFGRDQDNKIAIKNCDGVPALVRLLRKARDMDLTEVITGTLWNLSSHDSIKMEIVDHALHALTDEVIIPHSGWEREPNEDCKPRHIEWESVLTNTAGCLRNVSSERSEARRKLRECDGLVDALIFIVQAEIGQKDSDSKLVENCVCLLRNLSYQVHREIPQAERYQEAAPNVANNTGPHAASCFGAKKGKGKKPIEDPANDTVDFPKRTSPARGYELLFQPEVVRIYISLLKESKTPAILEASAGAIQNLCAGRWTYGRYIRSALRQEKALSAIADLLTNEHERVVKAASGALRNLAVDARNKELIGKHAIPNLVKNLPGGQQNSSWNFSEDTVISILNTINEVIAENLEAAKKLRETQGIEKLVLINKSGNRSEKEVRAAALVLQTIWGYKELRKPLEKEGWKKSDFQVNLNNASRSQSSHSYDDSTLPLIDRNQKSDKKPDREEIQMSNMGSNTKSLDNNYSTPNERGDHNRTLDRSGDLGDMEPLKGTTPLMQKI | binds |
| Nucleolar protein 58 (protein, UniProt Q9Y2X3 1-529) MLVLFETSVGYAIFKVLNEKKLQEVDSLWKEFETPEKANKIVKLKHFEKFQDTAEALAAFTALMEGKINKQLKKVLKKIVKEAHEPLAVADAKLGGVIKEKLNLSCIHSPVVNELMRGIRSQMDGLIPGVEPREMAAMCLGLAHSLSRYRLKFSADKVDTMIVQAISLLDDLDKELNNYIMRCREWYGWHFPELGKIISDNLTYCKCLQKVGDRKNYASAKLSELLPEEVEAEVKAAAEISMGTEVSEEDICNILHLCTQVIEISEYRTQLYEYLQNRMMAIAPNVTVMVGELVGARLIAHAGSLLNLAKHAASTVQILGAEKALFRALKSRRDTPKYGLIYHASLVGQTSPKHKGKISRMLAAKTVLAIRYDAFGEDSSSAMGVENRAKLEARLRTLEDRGIRKISGTGKALAKTEKYEHKSEVKTYDPSGDSTLPTCSKKRKIEQVDKEDEITEKKAKKAKIKVKVEEEEEEKVAEEEETSVKKKKKRGKKKHIKEEPLSEEEPCTSTAIASPEKKKKKKKKRENED | binds |
